Data from article PMC8943175.
Results are given in words; binding and its absence hold for the method and conditions named. In cells and extracts the contact can be indirect.

Sequences of proteins named here, by UniProt entry; tags and fusion partners are left off.
UniProt Q8CFE3: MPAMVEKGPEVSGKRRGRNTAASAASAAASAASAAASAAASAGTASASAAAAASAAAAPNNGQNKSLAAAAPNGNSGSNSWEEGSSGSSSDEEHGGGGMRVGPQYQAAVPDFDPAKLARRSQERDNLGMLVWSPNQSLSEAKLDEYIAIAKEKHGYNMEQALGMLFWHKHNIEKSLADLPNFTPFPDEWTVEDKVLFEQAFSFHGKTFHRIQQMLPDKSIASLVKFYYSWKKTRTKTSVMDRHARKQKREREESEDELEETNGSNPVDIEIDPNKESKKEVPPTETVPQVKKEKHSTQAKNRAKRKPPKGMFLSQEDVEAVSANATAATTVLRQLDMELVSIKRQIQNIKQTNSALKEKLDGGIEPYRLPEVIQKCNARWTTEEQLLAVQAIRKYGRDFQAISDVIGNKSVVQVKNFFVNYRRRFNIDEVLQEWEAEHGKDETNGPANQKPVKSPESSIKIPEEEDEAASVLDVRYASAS
UniProt Q61188: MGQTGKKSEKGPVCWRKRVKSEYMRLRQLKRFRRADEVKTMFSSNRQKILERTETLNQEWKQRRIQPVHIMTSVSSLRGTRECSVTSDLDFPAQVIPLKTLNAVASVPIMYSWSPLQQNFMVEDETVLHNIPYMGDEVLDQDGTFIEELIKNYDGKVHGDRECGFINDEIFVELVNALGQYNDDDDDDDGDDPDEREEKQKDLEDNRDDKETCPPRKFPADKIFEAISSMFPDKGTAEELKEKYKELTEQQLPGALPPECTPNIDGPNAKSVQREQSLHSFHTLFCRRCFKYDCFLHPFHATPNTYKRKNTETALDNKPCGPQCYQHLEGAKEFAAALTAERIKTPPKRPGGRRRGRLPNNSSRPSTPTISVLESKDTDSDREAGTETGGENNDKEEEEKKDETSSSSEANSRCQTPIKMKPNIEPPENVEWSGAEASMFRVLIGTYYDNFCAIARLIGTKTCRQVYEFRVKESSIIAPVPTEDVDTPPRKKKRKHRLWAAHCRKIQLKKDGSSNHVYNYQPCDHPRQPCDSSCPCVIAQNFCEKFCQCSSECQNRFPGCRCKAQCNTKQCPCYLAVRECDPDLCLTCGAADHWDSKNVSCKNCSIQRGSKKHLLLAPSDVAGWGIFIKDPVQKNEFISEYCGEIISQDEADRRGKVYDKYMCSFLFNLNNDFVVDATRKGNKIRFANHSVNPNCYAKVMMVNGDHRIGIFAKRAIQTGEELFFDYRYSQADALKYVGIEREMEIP

Molecular target: REST Corepressor 1 (RCOR1/CoREST1), endogenous in HT22 cells (mouse (endogenous in HT22)) (UniProt Q8CFE3)
Test: co-IP; endogenous proteins from HT22 whole-cell (native) extracts; lysis in 20 mM Tris-HCl pH 7.5, 150 mM NaCl, 1 mM EDTA, 1 mM EGTA, 1% NP40 with sonication; 1-2 ug antibody to the bait per 700 ug protein on Protein A magnetic beads, 12 h; blots of the precipitate; in some panels cells treated 1 h with THZ1, Flavopiridol, Cordycepin or Actinomycin D, or with …

**Q.** “EZH2, endogenous in HT22 cells (from UniProt Q61188 1-746)” was tested. Which binding did it give?
**A.** The binding was “no binding”.
